These are yes or no findings as the source states them, for the method shown. Binding seen in cells or lysates may run through a third protein. A yes stands for co-enrichment or nearness to the bait. Other partners may have been found. Tags and fused reporters may be left off the sequences shown.
Target: T1, TAP-tagged MERS1 NUDIX hydrolase (Trypanosoma brucei) (UniProt B6SBM0)
T1 sequence: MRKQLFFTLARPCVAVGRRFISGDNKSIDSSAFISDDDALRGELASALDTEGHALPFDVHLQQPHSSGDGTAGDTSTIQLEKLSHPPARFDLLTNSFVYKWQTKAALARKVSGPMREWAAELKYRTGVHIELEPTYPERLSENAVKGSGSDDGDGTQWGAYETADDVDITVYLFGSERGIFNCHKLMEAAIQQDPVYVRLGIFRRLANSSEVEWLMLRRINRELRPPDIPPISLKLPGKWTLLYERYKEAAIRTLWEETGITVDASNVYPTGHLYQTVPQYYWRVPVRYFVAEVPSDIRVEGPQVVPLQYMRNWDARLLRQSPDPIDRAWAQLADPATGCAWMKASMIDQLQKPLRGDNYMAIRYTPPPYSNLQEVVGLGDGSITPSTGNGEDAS
Assay: affinity purification with mass spectrometry

## MERS2 pentatricopeptide repeat-containing (PPR) protein, endogenous
  binding: binds

— doi:10.1101/350256
